pIC50: −log10 of the molar value. The structures given here were assigned with low confidence; some may be wrong.
How the values were obtained:
Assay type in all cases: biochemical
[1] = molecular target: Cathepsin G (cathepsin G human neutrophil) (Homo sapiens, UniProt P08311); experiment: IC50 determination, spectrophotometric protease assay; conditions: read-out: CatG IC50; alkyne probes; 15 min preincubation at 37°C; mean ± SD; tested form: TFA
Method: (§1) The IC50 value is defined as the concentration of inhibitor required to reduce the enzyme activity to 50% after a 15 min preincubation with the enzyme at 37°C before the addition of the substrate. The IC50 values were determined using a spectrophotometric assay. All the experiments were conducted in duplicate. The readout consisted of evaluating the protease-mediated release of the chromophore para-nitroaniline (pNA) or fluorophore 7-amino-4-methyl coumarin (AMC) moieties from the respective substrates. Enzymatic activity was measured for 30 min at 37°C. All compounds were initially screened at three concentrations (10, 1, and .1 μM) to estimate the range of the IC50 value. Those which were able to reduce protease activity by at least 50% at a concentration of 10 μM were submitted to an exact IC50 determination. […] A third independent experiment was performed when the standard deviation of the two independent experiments was higher than […]. IC50 values were obtained by fitting the data with the four-parameter logistics equation using GraphPad Prism 9.
(§2) The conditions for each protease are described as follows, the concentration of substrate used was at the corresponding Km.
(§3) Trypsin-3 (recombinant trypsin-3, R&D) and fluorogenic substrate tosyl-Gly-Pro-Arg-AMC (Km = 22.5 μM) were used in Tris buffer (100 mM Tris, 1 mM CaCl2) at pH 8.0 (25°C). Tryptase (recombinant tryptase β-2, EnzoLife Sciences) and fluorogenic substrate Boc-Gln-Ala-Arg-AMC (Km = 250 μM) were used in Tris buffer (50 mM Tris, 120 mM NaCl, .1 mg/ml BSA, .1 mg/ml heparin) at pH 8.0 (25°C). Thrombin (recombinant thrombin, R&D) and fluorogenic substrate Boc-Val-Pro-Arg-AMC (Km = 15 μM) were used in TRIS buffer (50 mM Tris HCl, 50 mM Tris base, 10 mM CaCl2, 150 mM NaCl) at pH 8.3 (25°C). uPA (recombinant urokinase plasminogen activator, HYPHEN BioMed) and chromogenic substrate pyro-Glu-Gly-Arg-pNA (Km = 80 μM) were used in HEPES buffer (50 mM HEPES) at pH 8.1 (25°C). Cathepsin G (cathepsin G human neutrophil, Sigma-Aldrich) and fluorogenic substrate Suc-Ala-Ala-Pro-Phe-AMC (Km = 130 μM) were used in Tris buffer (50 mM Tris, 120 mM NaCl) at pH 8.0 (25°C). TLCK-treated pancreatic bovine chymotrypsin (Sigma-Aldrich) and fluorescent substrate Suc-Ala-Ala-Pro-Phe-AMC (Km = 58 μM) were used in Tris buffer (50 mM Tris, 20 mM CaCl2) at pH 8.3 (25°C). Neutrophil Elastase (recombinant neutrophil elastase, Enzo LifeSciences) and fluorogenic substrate Suc-Ala-Ala-Pro-Val-AMC (Km = 500 μM) were used in Tris buffer (50 mM Tris, 120 mM NaCl) at pH 8.0 (25°C).

Chains of the proteins cited; added tags and fusions are not shown. Residues count along the entry.
UniProt P08311, 21-255 limits assumed: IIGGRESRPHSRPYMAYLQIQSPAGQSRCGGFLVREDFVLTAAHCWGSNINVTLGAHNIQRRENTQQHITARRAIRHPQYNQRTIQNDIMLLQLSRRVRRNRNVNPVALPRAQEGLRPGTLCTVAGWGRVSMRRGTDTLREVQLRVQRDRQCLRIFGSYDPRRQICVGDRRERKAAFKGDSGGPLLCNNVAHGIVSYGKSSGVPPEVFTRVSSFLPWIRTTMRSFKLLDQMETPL
UniProt P08246, 30-267 limits assumed: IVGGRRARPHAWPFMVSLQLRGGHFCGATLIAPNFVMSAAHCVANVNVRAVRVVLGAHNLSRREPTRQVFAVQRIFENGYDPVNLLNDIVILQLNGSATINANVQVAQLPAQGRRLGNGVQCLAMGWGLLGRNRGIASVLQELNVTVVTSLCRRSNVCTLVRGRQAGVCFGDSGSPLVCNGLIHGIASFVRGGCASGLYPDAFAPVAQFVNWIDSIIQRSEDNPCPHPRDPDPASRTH
UniProt P35030, whole entry: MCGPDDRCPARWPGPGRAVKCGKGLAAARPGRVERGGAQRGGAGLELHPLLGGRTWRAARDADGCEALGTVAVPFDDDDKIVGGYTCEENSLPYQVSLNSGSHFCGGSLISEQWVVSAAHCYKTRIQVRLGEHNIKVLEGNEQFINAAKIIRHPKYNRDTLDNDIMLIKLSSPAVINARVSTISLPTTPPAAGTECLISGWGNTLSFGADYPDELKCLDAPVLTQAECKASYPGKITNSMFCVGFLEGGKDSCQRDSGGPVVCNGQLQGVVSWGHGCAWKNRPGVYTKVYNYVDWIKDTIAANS
UniProt P20231, 31-275 limits assumed: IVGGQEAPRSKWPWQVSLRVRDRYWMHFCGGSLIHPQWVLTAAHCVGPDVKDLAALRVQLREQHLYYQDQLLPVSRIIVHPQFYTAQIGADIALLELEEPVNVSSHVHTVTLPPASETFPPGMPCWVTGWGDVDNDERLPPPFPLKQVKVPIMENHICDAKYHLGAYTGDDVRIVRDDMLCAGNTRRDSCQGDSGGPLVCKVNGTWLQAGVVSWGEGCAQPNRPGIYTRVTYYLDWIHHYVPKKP

[2] = molecular target: Neutrophil Elastase (recombinant neutrophil elastase) (Homo sapiens, UniProt P08246); experiment: as above; conditions: read-out: NE IC50; alkyne probes; 15 min preincubation at 37°C; mean ± SD; tested form: TFA
Method: as §1, §2, §3

[3] = molecular target: TLCK-treated pancreatic bovine chymotrypsin (Bos taurus, UniProt P00766); experiment: as above; conditions: read-out: ChTryp IC50; alkyne probes; 15 min preincubation at 37°C; mean ± SD; tested form: TFA
Method: as §1, §2, §3

[4] = molecular target: Thrombin (recombinant thrombin) (Homo sapiens, UniProt P00734); experiment: as above; conditions: read-out: Thrombin IC50; alkyne probes; 15 min preincubation at 37°C; mean ± SD; tested form: TFA
Method: as §1, §2, §3

[5] = molecular target: Trypsin-3 (recombinant trypsin-3) (Homo sapiens, UniProt P35030); experiment: as above; conditions: read-out: Trypsin-3 IC50; alkyne probes; 15 min preincubation at 37°C; mean ± SD; tested form: TFA
Method: as §1, §2, §3

[6] = molecular target: uPA (recombinant urokinase plasminogen activator) (Homo sapiens, UniProt P00749); experiment: as above; conditions: read-out: uPA IC50; alkyne probes; 15 min preincubation at 37°C; mean ± SD; tested form: TFA
Method: as §1, §2, §3

[7] = molecular target: β-tryptase (recombinant tryptase β-2) (Homo sapiens, UniProt P20231); experiment: as above; conditions: read-out: β-tryptase IC50; alkyne probes; 15 min preincubation at 37°C; mean ± SD; tested form: TFA
Method: as §1, §2, §3

uPA = uPA (Homo sapiens, UniProt P00749); experiment: Kinetic progress curves (kapp, mechanism); conditions: apparent second-order rate constant from progress curves; mean ± SD; tested form: TFA
Method: Because the compounds described in this paper were previously described as irreversible inhibitors, the IC50 value is inversely correlated with the second-order rate constant of inactivation. For a simple pseudo-first-order inactivation process, the activity after incubation with inhibitor (vi) varies with the inhibitor concentration (i), as described in the following equation: vi=v0·e^−kit where v0 is the activity in the absence of an inhibitor, k is the second-order rate constant of inactivation, and t is the time. The inactivation rate constant was determined from the time course of inhibition.
Kinetic assays were performed in the following manner. The inhibitor was mixed with the substrate, and the buffer solution with the enzyme was added at the time zero. The progress curves show the release of pNA or AMC as a function of time. […] Progress curves were recorded in pseudo-first-order conditions ([I]0>>[E]0) and with less than 10% conversion of the substrate during the entire time course. […] At=Ao+vs∙t+vi−vs∙1−e^−kobs∙t/kobs where At is the absorbance at time t, A0 is the absorbance at time zero, vi is the initial rate and vs is the velocity at the steady-state.
The apparent second-order rate constant (kapp) was calculated from the slope of the linear part of the plot of kobs vs. the inhibitor concentration ([I]0). […]

`C#CCCCC(=O)N1CCCC1C(=O)NC(CCCCN)P(=O)(Oc1ccccc1)Oc1ccccc1` (centres unmarked) gave a pIC50 [1] of less than 5.00, a pIC50 [2] of less than 5.00 and a pIC50 [3] of less than 5.00. It also gave a pIC50 [4] of 6.74, a pIC50 [5] of 7.05 and a pIC50 [6] of 5.60. It also gave a pIC50 [7] of 5.53 and a uPA kapp (uPA) of 188 ± 1 M⁻¹ s⁻¹.
